Data reported in the M2OR odorant receptor database.
This is a selection; strong and weak results do not stand in their true shares. Calls are pooled over several reports, among them a noisy single-well screen. The list shows a part of the results.

Key:
Conditions in all cases: stereoisomer not certain
UniProt Q8VGT4 = target: T1, UniProt Q8VGT4
T1 sequence (whole entry): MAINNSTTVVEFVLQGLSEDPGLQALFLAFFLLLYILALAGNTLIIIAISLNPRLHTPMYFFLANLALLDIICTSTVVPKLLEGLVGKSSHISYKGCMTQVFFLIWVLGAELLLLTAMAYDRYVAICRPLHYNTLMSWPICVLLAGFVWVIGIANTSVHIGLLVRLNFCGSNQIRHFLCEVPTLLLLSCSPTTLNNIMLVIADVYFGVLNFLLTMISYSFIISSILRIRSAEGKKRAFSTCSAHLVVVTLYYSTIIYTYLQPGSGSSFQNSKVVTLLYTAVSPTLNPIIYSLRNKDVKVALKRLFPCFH
Procedure, shortened: (§1)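 Each receptor–molecule pair is labelled responsive or non-responsive (inactive) according to whether the original authors judged the measured signal statistically different from baseline. The data were taken from the main text and supplementary material of published papers and checked for typos and inconsistencies. Assay methods differed by source, with transient luciferase assays in mammalian cell lines being common.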

UniProt Q8VGU3 = target: T2, UniProt Q8VGU3
T2 sequence (whole entry): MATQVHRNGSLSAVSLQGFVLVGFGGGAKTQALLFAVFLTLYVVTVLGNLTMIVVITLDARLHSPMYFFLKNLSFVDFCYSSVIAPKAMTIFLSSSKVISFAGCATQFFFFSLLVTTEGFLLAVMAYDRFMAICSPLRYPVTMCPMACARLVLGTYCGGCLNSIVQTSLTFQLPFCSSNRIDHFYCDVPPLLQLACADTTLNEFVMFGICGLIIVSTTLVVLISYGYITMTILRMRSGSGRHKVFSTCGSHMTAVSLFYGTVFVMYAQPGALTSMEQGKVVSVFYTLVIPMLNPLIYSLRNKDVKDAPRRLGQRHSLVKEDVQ
Procedure, shortened: as §1

UniProt Q8VGV1 = target: T3, UniProt Q8VGV1
T3 sequence (whole entry): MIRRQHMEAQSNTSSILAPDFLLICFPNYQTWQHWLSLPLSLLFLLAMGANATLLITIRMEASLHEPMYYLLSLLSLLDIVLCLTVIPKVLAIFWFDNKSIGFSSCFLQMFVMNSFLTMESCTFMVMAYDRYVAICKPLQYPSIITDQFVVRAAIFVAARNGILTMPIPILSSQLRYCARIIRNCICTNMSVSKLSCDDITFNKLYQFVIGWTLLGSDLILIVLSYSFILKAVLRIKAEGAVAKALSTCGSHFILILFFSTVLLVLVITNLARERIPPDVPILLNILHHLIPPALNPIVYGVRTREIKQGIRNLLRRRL
Procedure, shortened: as §1

UniProt Q8VGV7 = target: T4, UniProt Q8VGV7
T4 sequence (whole entry): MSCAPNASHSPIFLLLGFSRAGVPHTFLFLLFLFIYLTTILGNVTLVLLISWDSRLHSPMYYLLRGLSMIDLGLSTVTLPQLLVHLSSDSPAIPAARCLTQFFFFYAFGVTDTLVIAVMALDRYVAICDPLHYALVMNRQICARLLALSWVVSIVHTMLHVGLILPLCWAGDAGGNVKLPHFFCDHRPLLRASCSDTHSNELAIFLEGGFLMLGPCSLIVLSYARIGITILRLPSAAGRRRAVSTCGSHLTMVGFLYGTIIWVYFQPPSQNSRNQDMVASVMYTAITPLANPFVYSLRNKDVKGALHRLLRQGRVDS
Procedure, shortened: as §1

UniProt Q8VGW5 = target: T5, UniProt Q8VGW5
T5 sequence (whole entry): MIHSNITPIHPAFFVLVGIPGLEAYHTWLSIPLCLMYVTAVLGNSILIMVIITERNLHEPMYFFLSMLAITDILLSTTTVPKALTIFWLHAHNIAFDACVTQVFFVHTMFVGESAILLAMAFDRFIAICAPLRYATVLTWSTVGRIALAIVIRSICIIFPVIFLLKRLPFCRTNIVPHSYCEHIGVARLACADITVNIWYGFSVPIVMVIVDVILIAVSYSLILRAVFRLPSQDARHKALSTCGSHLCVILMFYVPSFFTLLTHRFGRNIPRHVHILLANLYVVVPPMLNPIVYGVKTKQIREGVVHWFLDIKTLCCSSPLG
Procedure, shortened: as §1

UniProt Q8VGX3 = target: T6, UniProt Q8VGX3
T6 sequence (whole entry): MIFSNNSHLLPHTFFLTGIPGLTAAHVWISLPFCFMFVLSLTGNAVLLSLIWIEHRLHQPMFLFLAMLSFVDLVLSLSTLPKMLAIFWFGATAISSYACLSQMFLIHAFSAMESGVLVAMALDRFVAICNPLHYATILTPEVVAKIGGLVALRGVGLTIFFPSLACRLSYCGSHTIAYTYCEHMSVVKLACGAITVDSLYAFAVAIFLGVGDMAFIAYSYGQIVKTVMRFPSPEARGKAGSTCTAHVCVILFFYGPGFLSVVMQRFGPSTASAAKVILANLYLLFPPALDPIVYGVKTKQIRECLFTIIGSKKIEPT
Procedure, shortened: as §1

UniProt Q8VGX5 = target: T7, UniProt Q8VGX5
T7 sequence (whole entry): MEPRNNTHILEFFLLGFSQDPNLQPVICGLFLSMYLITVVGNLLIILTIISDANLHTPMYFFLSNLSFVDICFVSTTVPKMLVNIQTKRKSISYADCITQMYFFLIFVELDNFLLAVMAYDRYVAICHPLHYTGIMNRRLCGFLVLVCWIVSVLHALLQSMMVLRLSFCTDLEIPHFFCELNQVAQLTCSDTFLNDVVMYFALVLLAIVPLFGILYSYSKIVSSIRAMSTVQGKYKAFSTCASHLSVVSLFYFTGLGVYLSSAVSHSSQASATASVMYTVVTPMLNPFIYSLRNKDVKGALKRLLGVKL
Procedure, shortened: as §1

UniProt Q8VGX8 = target: T8, UniProt Q8VGX8
T8 sequence (whole entry): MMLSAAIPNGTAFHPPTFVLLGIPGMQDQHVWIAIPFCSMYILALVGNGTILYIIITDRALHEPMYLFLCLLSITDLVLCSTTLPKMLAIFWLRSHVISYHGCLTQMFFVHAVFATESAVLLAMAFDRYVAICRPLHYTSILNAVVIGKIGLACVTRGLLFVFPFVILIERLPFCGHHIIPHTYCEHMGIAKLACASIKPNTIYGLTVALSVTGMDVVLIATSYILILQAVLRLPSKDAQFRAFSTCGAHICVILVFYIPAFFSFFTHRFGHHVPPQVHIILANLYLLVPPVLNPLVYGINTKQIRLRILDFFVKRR
Procedure, shortened: as §1

UniProt Q8VGY6 = target: T9, UniProt Q8VGY6
T9 sequence (whole entry): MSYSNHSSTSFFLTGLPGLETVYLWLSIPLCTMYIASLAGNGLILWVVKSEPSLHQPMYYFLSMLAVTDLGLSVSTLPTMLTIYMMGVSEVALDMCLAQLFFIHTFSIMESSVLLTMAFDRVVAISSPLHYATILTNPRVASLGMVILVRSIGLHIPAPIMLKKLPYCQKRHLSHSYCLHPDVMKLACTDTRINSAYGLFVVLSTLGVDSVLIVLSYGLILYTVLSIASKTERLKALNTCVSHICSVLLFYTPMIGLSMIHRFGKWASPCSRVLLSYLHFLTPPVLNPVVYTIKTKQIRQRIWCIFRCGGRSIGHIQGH
Procedure, shortened: as §1

UniProt Q8VGZ2 = target: T10, UniProt Q8VGZ2
T10 sequence (whole entry): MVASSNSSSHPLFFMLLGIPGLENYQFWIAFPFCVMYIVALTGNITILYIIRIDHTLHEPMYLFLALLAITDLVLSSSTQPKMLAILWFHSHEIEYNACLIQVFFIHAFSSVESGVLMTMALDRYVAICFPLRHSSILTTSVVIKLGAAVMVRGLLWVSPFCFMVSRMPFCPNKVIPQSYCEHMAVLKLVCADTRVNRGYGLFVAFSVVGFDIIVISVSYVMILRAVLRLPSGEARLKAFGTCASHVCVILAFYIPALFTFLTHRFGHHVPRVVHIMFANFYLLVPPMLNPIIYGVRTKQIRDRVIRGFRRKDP
Procedure, shortened: as §1

UniProt Q8VGZ7 = target: T11, UniProt Q8VGZ7
T11 sequence (whole entry): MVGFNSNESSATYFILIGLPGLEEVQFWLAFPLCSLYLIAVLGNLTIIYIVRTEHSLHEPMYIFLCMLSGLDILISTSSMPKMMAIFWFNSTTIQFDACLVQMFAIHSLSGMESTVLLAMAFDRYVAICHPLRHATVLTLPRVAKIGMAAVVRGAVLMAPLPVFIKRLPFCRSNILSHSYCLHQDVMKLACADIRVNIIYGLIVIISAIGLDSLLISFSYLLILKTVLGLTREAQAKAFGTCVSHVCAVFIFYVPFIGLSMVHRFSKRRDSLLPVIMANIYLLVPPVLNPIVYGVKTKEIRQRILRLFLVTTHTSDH
Procedure, shortened: as §1

UniProt Q8VH10 = target: T12, UniProt Q8VH10
T12 sequence (whole entry): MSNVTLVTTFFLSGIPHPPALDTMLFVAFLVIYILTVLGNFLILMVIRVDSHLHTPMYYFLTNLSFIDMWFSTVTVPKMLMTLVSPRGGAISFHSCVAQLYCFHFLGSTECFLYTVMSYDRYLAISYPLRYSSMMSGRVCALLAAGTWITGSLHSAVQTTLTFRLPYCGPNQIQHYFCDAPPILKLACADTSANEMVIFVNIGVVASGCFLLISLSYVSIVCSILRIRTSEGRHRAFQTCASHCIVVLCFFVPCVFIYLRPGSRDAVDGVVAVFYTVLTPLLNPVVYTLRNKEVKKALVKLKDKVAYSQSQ
Procedure, shortened: as §1

UniProt Q8VH16 = target: T13, UniProt Q8VH16
T13 sequence (whole entry): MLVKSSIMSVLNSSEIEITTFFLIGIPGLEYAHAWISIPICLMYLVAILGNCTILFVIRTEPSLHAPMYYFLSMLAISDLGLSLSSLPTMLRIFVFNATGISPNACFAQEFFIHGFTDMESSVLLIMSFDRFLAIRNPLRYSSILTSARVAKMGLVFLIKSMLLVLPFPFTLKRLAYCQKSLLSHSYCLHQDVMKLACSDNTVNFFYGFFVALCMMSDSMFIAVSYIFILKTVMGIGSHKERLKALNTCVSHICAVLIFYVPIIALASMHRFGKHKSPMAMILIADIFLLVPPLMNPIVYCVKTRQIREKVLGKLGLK
Procedure, shortened: as §1

UniProt Q8VH18 = target: T14, UniProt Q8VH18
T14 sequence (whole entry): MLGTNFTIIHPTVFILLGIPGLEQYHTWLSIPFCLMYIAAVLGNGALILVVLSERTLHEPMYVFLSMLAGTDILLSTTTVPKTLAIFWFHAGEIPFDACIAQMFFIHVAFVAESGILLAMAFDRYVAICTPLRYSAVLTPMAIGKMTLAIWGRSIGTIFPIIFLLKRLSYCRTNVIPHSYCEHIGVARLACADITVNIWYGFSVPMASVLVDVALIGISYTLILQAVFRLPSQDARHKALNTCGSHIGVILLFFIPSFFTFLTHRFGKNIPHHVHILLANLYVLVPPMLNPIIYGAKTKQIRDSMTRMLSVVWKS
Procedure, shortened: as §1

UniProt Q8VH20 = target: T15, UniProt Q8VH20
T15 sequence (whole entry): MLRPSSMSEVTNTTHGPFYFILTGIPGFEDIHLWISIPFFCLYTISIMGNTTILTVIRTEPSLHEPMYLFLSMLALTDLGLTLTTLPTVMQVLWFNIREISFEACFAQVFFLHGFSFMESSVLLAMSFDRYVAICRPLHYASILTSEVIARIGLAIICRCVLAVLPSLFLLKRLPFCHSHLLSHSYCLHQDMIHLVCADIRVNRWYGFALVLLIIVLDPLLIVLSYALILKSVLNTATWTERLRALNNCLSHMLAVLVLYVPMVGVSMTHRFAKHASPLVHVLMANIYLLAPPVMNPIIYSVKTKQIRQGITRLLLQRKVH
Procedure, shortened: as §1

UniProt Q8VH21 = target: T16, UniProt Q8VH21
T16 sequence (whole entry): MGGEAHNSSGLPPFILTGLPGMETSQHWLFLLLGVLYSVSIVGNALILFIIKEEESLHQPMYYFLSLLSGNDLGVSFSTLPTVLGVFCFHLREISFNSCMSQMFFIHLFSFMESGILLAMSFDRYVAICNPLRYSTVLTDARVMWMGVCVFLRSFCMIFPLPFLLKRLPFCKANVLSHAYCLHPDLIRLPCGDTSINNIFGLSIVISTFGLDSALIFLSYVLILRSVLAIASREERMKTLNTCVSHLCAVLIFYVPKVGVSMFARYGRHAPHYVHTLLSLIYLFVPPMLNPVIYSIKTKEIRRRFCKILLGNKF
Procedure, shortened: as §1

UniProt Q924H8 = target: T17, UniProt Q924H8
T17 sequence (whole entry): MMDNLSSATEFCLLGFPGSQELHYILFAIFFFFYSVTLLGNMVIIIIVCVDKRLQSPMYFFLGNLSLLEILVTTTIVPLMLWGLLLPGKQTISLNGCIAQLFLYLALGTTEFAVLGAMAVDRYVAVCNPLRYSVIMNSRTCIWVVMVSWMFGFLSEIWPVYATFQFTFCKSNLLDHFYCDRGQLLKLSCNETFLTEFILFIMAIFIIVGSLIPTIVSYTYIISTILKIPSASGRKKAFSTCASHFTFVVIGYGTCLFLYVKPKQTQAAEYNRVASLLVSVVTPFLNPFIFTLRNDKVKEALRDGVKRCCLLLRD
Procedure, shortened: as §1

Measured: odorant receptor agonist call

CC(=O)c1ccccc1
active: UniProt Q8VGX5
inactive: all other assays above

c1cnccn1
not listed: UniProt Q8VGT4 | UniProt Q8VGV1 | UniProt Q8VGW5 | UniProt Q8VGX8 | UniProt Q8VGY6 | UniProt Q8VH10 | UniProt Q8VH18
inactive: all other assays above
